# Measurements reported in the supplement of paper PMC11438910.
# The list shows a part of the results. The signal is at background level for most entries.
# B1: 3S41.3 (protein)
# chain 1: EVQLVESGGGLVQPGGSLRLSCATSGFTFSNYWMYWFRQAPGKGLEWVSTISGSSSNTYYPDSVKGRFTISRDNAKNTLYLQINSLRAEDTAVYYCARRHDHSSGWAFDYWGQGVLVTVSS
# chain 2: EIVMTQSPATLSLSPGERATLSCRASQSVGSNLAWYQQKPGQAPKLLIYDASSRATGIPDRFSGSGSGTDFTLTVSSLEPEDVGVYYCQQYNNWKTFGQGTKVEIK
# How the values were obtained:
# Test in all cases: fluorescence intensity of antibody binding to polysaccharide-coupled beads; higher = stronger binding
# [1] = molecular target: pneumococcal polysaccharide Pn11A
# [2] = molecular target: pneumococcal polysaccharide Pn11B
# [3] = molecular target: pneumococcal polysaccharide Pn11C
# [4] = molecular target: pneumococcal polysaccharide Pn11D
# [5] = molecular target: pneumococcal polysaccharide Pn11F
# [6] = molecular target: pneumococcal polysaccharide Pn12A
# [7] = molecular target: pneumococcal polysaccharide Pn12B
# [8] = molecular target: pneumococcal polysaccharide Pn12F
# [9] = molecular target: pneumococcal polysaccharide Pn13
# [10] = molecular target: pneumococcal polysaccharide Pn14
# [11] = molecular target: pneumococcal polysaccharide Pn15A
# [12] = molecular target: pneumococcal polysaccharide Pn15B
# [13] = molecular target: pneumococcal polysaccharide Pn15C
# [14] = molecular target: pneumococcal polysaccharide Pn15F
# [15] = molecular target: pneumococcal polysaccharide Pn16A
# [16] = molecular target: pneumococcal polysaccharide Pn16F
# [17] = molecular target: pneumococcal polysaccharide Pn17A
# [18] = molecular target: pneumococcal polysaccharide Pn17F
# [19] = molecular target: pneumococcal polysaccharide Pn18A
# [20] = molecular target: pneumococcal polysaccharide Pn18B
# [21] = molecular target: pneumococcal polysaccharide Pn18C
# [22] = molecular target: pneumococcal polysaccharide Pn18F
# [23] = molecular target: pneumococcal polysaccharide Pn19A
# [24] = antibody concentration 81.7561 ng/mL
# [25] = antibody concentration 437.17 ng/mL
# [26] = antibody concentration 2337.65 ng/mL
# [27] = antibody concentration 12500 ng/mL
# [28] = antibody concentration 0.1 ng/mL
# [29] = antibody concentration 0.534724 ng/mL
# [30] = antibody concentration 2.8593 ng/mL
# [31] = antibody concentration 15.2894 ng/mL
binder,measurement,setting,value
B1,fluorescence intensity,[1]; [24],32 MFI
same,fluorescence intensity,[1]; [25],40.2 MFI
same,fluorescence intensity,[1]; [26],52 MFI
same,fluorescence intensity,[1]; [27],85.2 MFI
same,fluorescence intensity,[2]; [28],25 MFI
same,fluorescence intensity,[2]; [29],28 MFI
same,fluorescence intensity,[2]; [30],23.2 MFI
same,fluorescence intensity,[2]; [31],24 MFI
same,fluorescence intensity,[2]; [24],29.5 MFI
same,fluorescence intensity,[2]; [25],31.5 MFI
same,fluorescence intensity,[2]; [26],37.5 MFI
same,fluorescence intensity,[2]; [27],62.8 MFI
same,fluorescence intensity,[3]; [28],21 MFI
same,fluorescence intensity,[3]; [29],20 MFI
same,fluorescence intensity,[3]; [30],20 MFI
same,fluorescence intensity,[3]; [31],20.5 MFI
same,fluorescence intensity,[3]; [24],22.8 MFI
same,fluorescence intensity,[3]; [25],49.5 MFI
same,fluorescence intensity,[3]; [26],354 MFI
same,fluorescence intensity,[3]; [27],1250 MFI
same,fluorescence intensity,[4]; [28],23.5 MFI
same,fluorescence intensity,[4]; [29],21.5 MFI
same,fluorescence intensity,[4]; [30],20 MFI
same,fluorescence intensity,[4]; [31],22.5 MFI
same,fluorescence intensity,[4]; [24],23.5 MFI
same,fluorescence intensity,[4]; [25],32.5 MFI
same,fluorescence intensity,[4]; [26],154 MFI
same,fluorescence intensity,[4]; [27],480 MFI
same,fluorescence intensity,[5]; [28],14 MFI
same,fluorescence intensity,[5]; [29],13 MFI
same,fluorescence intensity,[5]; [30],13.8 MFI
same,fluorescence intensity,[5]; [31],12.5 MFI
same,fluorescence intensity,[5]; [24],14.2 MFI
same,fluorescence intensity,[5]; [25],16.5 MFI
same,fluorescence intensity,[5]; [26],25.8 MFI
same,fluorescence intensity,[5]; [27],67.5 MFI
same,fluorescence intensity,[6]; [28],16 MFI
same,fluorescence intensity,[6]; [29],14 MFI
same,fluorescence intensity,[6]; [30],14.5 MFI
same,fluorescence intensity,[6]; [31],15.5 MFI
same,fluorescence intensity,[6]; [24],16 MFI
same,fluorescence intensity,[6]; [25],20 MFI
same,fluorescence intensity,[6]; [26],35 MFI
same,fluorescence intensity,[6]; [27],132 MFI
same,fluorescence intensity,[7]; [28],15.5 MFI
same,fluorescence intensity,[7]; [29],15 MFI
same,fluorescence intensity,[7]; [30],15.8 MFI
same,fluorescence intensity,[7]; [31],14.5 MFI
same,fluorescence intensity,[7]; [24],15.5 MFI
same,fluorescence intensity,[7]; [25],18.5 MFI
same,fluorescence intensity,[7]; [26],46.5 MFI
same,fluorescence intensity,[7]; [27],152 MFI
same,fluorescence intensity,[8]; [28],19 MFI
same,fluorescence intensity,[8]; [29],18.8 MFI
same,fluorescence intensity,[8]; [30],18.5 MFI
same,fluorescence intensity,[8]; [31],18 MFI
same,fluorescence intensity,[8]; [24],20 MFI
same,fluorescence intensity,[8]; [25],38 MFI
same,fluorescence intensity,[8]; [26],193 MFI
same,fluorescence intensity,[8]; [27],514 MFI
same,fluorescence intensity,[9]; [28],19 MFI
same,fluorescence intensity,[9]; [29],17.5 MFI
same,fluorescence intensity,[9]; [30],18 MFI
same,fluorescence intensity,[9]; [31],19.2 MFI
same,fluorescence intensity,[9]; [24],18.5 MFI
same,fluorescence intensity,[9]; [25],20.5 MFI
same,fluorescence intensity,[9]; [26],54.5 MFI
same,fluorescence intensity,[9]; [27],176 MFI
same,fluorescence intensity,[10]; [28],13.5 MFI
same,fluorescence intensity,[10]; [29],14.5 MFI
same,fluorescence intensity,[10]; [30],13.5 MFI
same,fluorescence intensity,[10]; [31],15 MFI
same,fluorescence intensity,[10]; [24],18.5 MFI
same,fluorescence intensity,[10]; [25],90.5 MFI
same,fluorescence intensity,[10]; [26],924 MFI
same,fluorescence intensity,[10]; [27],1830 MFI
same,fluorescence intensity,[11]; [28],12 MFI
same,fluorescence intensity,[11]; [29],12 MFI
same,fluorescence intensity,[11]; [30],12.2 MFI
same,fluorescence intensity,[11]; [31],13 MFI
same,fluorescence intensity,[11]; [24],13.5 MFI
same,fluorescence intensity,[11]; [25],13.2 MFI
same,fluorescence intensity,[11]; [26],16.5 MFI
same,fluorescence intensity,[11]; [27],33.5 MFI
same,fluorescence intensity,[12]; [28],17.5 MFI
same,fluorescence intensity,[12]; [29],18.2 MFI
same,fluorescence intensity,[12]; [30],19.5 MFI
same,fluorescence intensity,[12]; [31],19 MFI
same,fluorescence intensity,[12]; [24],21 MFI
same,fluorescence intensity,[12]; [25],26 MFI
same,fluorescence intensity,[12]; [26],33 MFI
same,fluorescence intensity,[12]; [27],57 MFI
same,fluorescence intensity,[13]; [28],17.2 MFI
same,fluorescence intensity,[13]; [29],16.8 MFI
same,fluorescence intensity,[13]; [30],20 MFI
same,fluorescence intensity,[13]; [31],17.5 MFI
same,fluorescence intensity,[13]; [24],14.8 MFI
same,fluorescence intensity,[13]; [25],19 MFI
same,fluorescence intensity,[13]; [26],27 MFI
same,fluorescence intensity,[13]; [27],59.2 MFI
same,fluorescence intensity,[14]; [28],16.5 MFI
same,fluorescence intensity,[14]; [29],16.5 MFI
same,fluorescence intensity,[14]; [30],16 MFI
same,fluorescence intensity,[14]; [31],17.2 MFI
same,fluorescence intensity,[14]; [24],17.5 MFI
same,fluorescence intensity,[14]; [25],20.8 MFI
same,fluorescence intensity,[14]; [26],30 MFI
same,fluorescence intensity,[14]; [27],60 MFI
same,fluorescence intensity,[15]; [28],14 MFI
same,fluorescence intensity,[15]; [29],13 MFI
same,fluorescence intensity,[15]; [30],14 MFI
same,fluorescence intensity,[15]; [31],16 MFI
same,fluorescence intensity,[15]; [24],14.5 MFI
same,fluorescence intensity,[15]; [25],17.2 MFI
same,fluorescence intensity,[15]; [26],30.2 MFI
same,fluorescence intensity,[15]; [27],87.5 MFI
same,fluorescence intensity,[16]; [28],23 MFI
same,fluorescence intensity,[16]; [29],23.2 MFI
same,fluorescence intensity,[16]; [30],21.5 MFI
same,fluorescence intensity,[16]; [31],24.5 MFI
same,fluorescence intensity,[16]; [24],25.5 MFI
same,fluorescence intensity,[16]; [25],32 MFI
same,fluorescence intensity,[16]; [26],34 MFI
same,fluorescence intensity,[16]; [27],74.8 MFI
same,fluorescence intensity,[17]; [28],21 MFI
same,fluorescence intensity,[17]; [29],20 MFI
same,fluorescence intensity,[17]; [30],19 MFI
same,fluorescence intensity,[17]; [31],20.2 MFI
same,fluorescence intensity,[17]; [24],20 MFI
same,fluorescence intensity,[17]; [25],21.5 MFI
same,fluorescence intensity,[17]; [26],25.8 MFI
same,fluorescence intensity,[17]; [27],56.5 MFI
same,fluorescence intensity,[18]; [28],24 MFI
same,fluorescence intensity,[18]; [29],25.5 MFI
same,fluorescence intensity,[18]; [30],26.2 MFI
same,fluorescence intensity,[18]; [31],25.5 MFI
same,fluorescence intensity,[18]; [24],27 MFI
same,fluorescence intensity,[18]; [25],27.5 MFI
same,fluorescence intensity,[18]; [26],32 MFI
same,fluorescence intensity,[18]; [27],53.5 MFI
same,fluorescence intensity,[19]; [28],23.5 MFI
same,fluorescence intensity,[19]; [29],21.5 MFI
same,fluorescence intensity,[19]; [30],23.5 MFI
same,fluorescence intensity,[19]; [31],23 MFI
same,fluorescence intensity,[19]; [24],24.5 MFI
same,fluorescence intensity,[19]; [25],23.8 MFI
same,fluorescence intensity,[19]; [26],29.5 MFI
same,fluorescence intensity,[19]; [27],68.8 MFI
same,fluorescence intensity,[20]; [28],30 MFI
same,fluorescence intensity,[20]; [29],28 MFI
same,fluorescence intensity,[20]; [30],29.8 MFI
same,fluorescence intensity,[20]; [31],29.2 MFI
same,fluorescence intensity,[20]; [24],34 MFI
same,fluorescence intensity,[20]; [25],35 MFI
same,fluorescence intensity,[20]; [26],43.5 MFI
same,fluorescence intensity,[20]; [27],95 MFI
same,fluorescence intensity,[21]; [28],18.5 MFI
same,fluorescence intensity,[21]; [29],18.2 MFI
same,fluorescence intensity,[21]; [30],17.5 MFI
same,fluorescence intensity,[21]; [31],19.5 MFI
same,fluorescence intensity,[21]; [24],20 MFI
same,fluorescence intensity,[21]; [25],28 MFI
same,fluorescence intensity,[21]; [26],42 MFI
same,fluorescence intensity,[21]; [27],84.5 MFI
same,fluorescence intensity,[22]; [28],22 MFI
same,fluorescence intensity,[22]; [29],22.5 MFI
same,fluorescence intensity,[22]; [30],21 MFI
same,fluorescence intensity,[22]; [31],22.5 MFI
same,fluorescence intensity,[22]; [24],24.5 MFI
same,fluorescence intensity,[22]; [25],34 MFI
same,fluorescence intensity,[22]; [26],44 MFI
same,fluorescence intensity,[22]; [27],100 MFI
same,fluorescence intensity,[23]; [28],18 MFI
same,fluorescence intensity,[23]; [29],17.5 MFI
same,fluorescence intensity,[23]; [30],18 MFI
same,fluorescence intensity,[23]; [31],17.5 MFI
same,fluorescence intensity,[23]; [24],17.5 MFI
same,fluorescence intensity,[23]; [25],23.5 MFI
same,fluorescence intensity,[23]; [26],59 MFI
same,fluorescence intensity,[23]; [27],148 MFI

# Reprinted from the listing for reference:
binder,measurement,setting,value
B1,fluorescence intensity,[19]; [25],23.8 MFI
same,fluorescence intensity,[19]; [26],29.5 MFI
same,fluorescence intensity,[19]; [27],68.8 MFI
same,fluorescence intensity,[20]; [28],30 MFI
same,fluorescence intensity,[20]; [29],28 MFI

# Reprinted at random: three entries already listed, in no set order.
binder,measurement,setting,value
B1,fluorescence intensity,[10]; [24],18.5 MFI
same,fluorescence intensity,[3]; [25],49.5 MFI
same,fluorescence intensity,[14]; [25],20.8 MFI
